{
  "source": "patent US12290521B2",
  "about": "“Methods and materials for identifying and treating BET inhibitor-resistant cancers” (Mayo Foundation for Medical Education and Research, priority 2018, dated 2025)",
  "test_system": "DU145 cells",
  "experiment": "Cell proliferation (MTS assay)",
  "format": "cell-based, human",
  "details": "DUB3-overexpressing DU145 cells; I-BET 5 μM",
  "protocol": "Cell proliferation was measured by using the MTS assay (Promega). Prostate cancer cells (2,000 per well) were seeded in 96-well plates with 100 μL of culture medium. Each well was added with 20 μL of CellTiter 96R AQueous One Solution Reagent (Promega) and absorbance was measured in a microplate reader at 490 nm.\nDU145 prostate cancer cells were infected with empty vector (EV) or SPOP F133V mutant lentivirus and selected with purimycin for 48 hours. The cells then were treated with vehicle (DMSO), a CBP/p300 inhibitor (CPI-637; iCBP; 20 μM), or a BET inhibitor (JQ1; 2 μM) alone or a combination of CPI-637 and JQ1. After 72 hours, cells were subjected to measurement of cell growth by an MTS assay. In each cell type (EV and F133V), the OD value in each group was normalized by the value in the control (vehicle) group.",
  "data": [
    {"compound": "CCNC(=O)C[C@@H]1N=C(c2ccc(Cl)cc2)c2cc(OC)ccc2-n2c(C)nnc21", "note": "[i-BET762]", "values": [
      {"measurement": "resistance of cell growth by DUB3 overexpression", "result": "conferred resistance"}
    ]}
  ]
}
